According to PubChem BioAssay AID248 (DTP/NCI, 2004):
The list shows only some results of the screen, not a fair sample: it gathers tests that were run many times, whatever their T/C, doses with no T/C, and many T/C values between a quarter and a half above the control. Other doses and runs of a compound stand elsewhere. T/C is the treated group as % of the vehicle group. Some doses have a count of surviving animals in place of a T/C: the source holds a T/C of zero for them, seemingly a mark for toxic or unscored doses. Some survivor counts are full or nearly so, which does not show that the dose was tolerated: survival well below the control is almost never listed, so the zero probably covers shortened survival too. Counts of survivors are from the toxicity check (mostly the fifth day) where no day follows; animals may have died later. Schedule codes are those of the source, taken here to give the interval after Q, in days (D) or hours (H), and the number of doses after X. Where survival is the endpoint, this PubChem deposit counts one and a half times the control or more as active, and values a quarter to a half above the control carry no call in these data; other NCI protocols may use other cut-offs.

Test system: L1210 leukemia ip in BDF1 mice, survival T/C
Test: NCI In Vivo Anticancer Drug Screen. Data for tumor model L1210 Leukemia (intraperitoneal) in B6D2F1 (BDF1) mice
Conditions: T/C endpoint: mean survival time, higher T/C = longer survival
[1] = dose: 400.0 mg/kg/injection, schedule: Q04DX003 (ip), vehicle: Klucel (hydroxypropylcellulose) (HPC)
[2] = dose: 200.0 mg/kg/injection, schedule: Q04DX003 (ip), vehicle: saline
[3] = dose: 400.0 mg/kg/injection, schedule: Q01DX001 (ip), vehicle: saline
[4] = dose: 100.0 mg/kg/injection, schedule: Q01DX001 (ip), vehicle: saline
[5] = dose: 200.0 mg/kg/injection, schedule: Q01DX001 (ip), vehicle: saline
[6] = dose: 200.0 mg/kg/injection, schedule: Q01DX009 (ip), vehicle: saline with Tween-80
[7] = dose: 200.0 mg/kg/injection, schedule: Q04DX003 (ip), vehicle: saline with Tween-80
[8] = dose: 400.0 mg/kg/injection, schedule: Q04DX003 (ip), vehicle: saline with Tween-80
[9] = dose: 400.0 mg/kg/injection, schedule: Q01DX009 (ip), vehicle: saline

For CCc1cc(C)cc(CC)c1N, the survivor count (dose: 400.0 mg/kg/injection, schedule: Q01DX009 (ip), vehicle: Klucel (hydroxypropylcellulose) (HPC)) was 0 of 6.
For CC1(C)C(=O)N(Br)C(=O)N1Br, the survivor count (dose: 100.0 mg/kg/injection, schedule: Q04DX003 (ip), vehicle: Klucel (hydroxypropylcellulose) (HPC)) was 1 of 3, the survivor count (dose: 200.0 mg/kg/injection, schedule: Q04DX003 (ip), vehicle: Klucel (hydroxypropylcellulose) (HPC)) was 3 of 3 and the survivor count [1] was 1 of 3.
With Clc1c(Cl)c(CBr)c(Cl)c(CBr)c1Cl the survivor count (dose: 100.0 mg/kg/injection, schedule: Q01DX009 (ip), vehicle: Klucel (hydroxypropylcellulose) (HPC)) was 2 of 6, the survivor count (dose: 200.0 mg/kg/injection, schedule: Q01DX009 (ip), vehicle: Klucel (hydroxypropylcellulose) (HPC)) was 0 of 6 and the survivor count [1] was 0 of 6.
O=[N+]([O-])c1c[nH]c2[nH]cnc(=S)c12 was tested, and the survivor count (dose: 400.0 mg/kg/injection, schedule: Q01DX001 (ip), vehicle: carboxymethylcellulose (CMC)) was 2 of 4.
In the case of Cc1cc[n+](Cc2ccc([N+](=O)[O-])cc2)cc1, the survivor count [2] is reported as 3 of 6 and the survivor count [3] is reported as 0 of 6.
For CC1(C)CCC(C)(C)c2c1ccc(O)c2Cc1c(O)ccc2c1C(C)(C)CCC2(C)C, the survivor count [4] was 6 of 6 and the survivor count [3] was 6 of 6.
With NCCCCC(N)C(=O)Nc1ccc(Cc2ccc(NC(=O)C(N)CCCCN)cc2)cc1 (configuration not stated) the survivor count [5] was 1 of 4 and the survivor count [3] was 0 of 4.
In the case of NNc1nnnc2ccccc12, the survivor count (dose: 40.0 mg/kg/injection, schedule: Q01DX001 (ip), vehicle: Klucel (hydroxypropylcellulose) (HPC)) is reported as 3 of 6, the survivor count (dose: 80.0 mg/kg/injection, schedule: Q01DX001 (ip), vehicle: Klucel (hydroxypropylcellulose) (HPC)) is reported as 0 of 6 and the survivor count (dose: 100.0 mg/kg/injection, schedule: Q01DX001 (ip), vehicle: Klucel (hydroxypropylcellulose) (HPC)) is reported as 0 of 6. The survivor count (dose: 200.0 mg/kg/injection, schedule: Q01DX001 (ip), vehicle: Klucel (hydroxypropylcellulose) (HPC)) was 0 of 6 and the survivor count (dose: 400.0 mg/kg/injection, schedule: Q01DX001 (ip), vehicle: Klucel (hydroxypropylcellulose) (HPC)) was 1 of 6.
In the case of COc1ccccc1C1CCCC2C(Oc3ccc([N+](=O)[O-])cc3)OC12 (configuration not stated), the survivor count [6] is reported as 3 of 3.
With CC(C)C(CN)(CCN(C)C)c1cccc2ccccc12 (configuration not stated) the survivor count [7] was 5 of 6 and the survivor count [8] was 0 of 6.
With O=C(N/N=C/C1CC2C=CC1C2)c1ccncc1 (configuration not stated) the survivor count [6] was 2 of 6 and the survivor count (dose: 400.0 mg/kg/injection, schedule: Q01DX009 (ip), vehicle: saline with Tween-80) was 0 of 6.
For CC(=O)NCCN, the survivor count [2] was 6 of 6.
In the case of O=C(OC(C(=O)O)C(OC(=O)c1ccccc1)C(=O)O)c1ccccc1 (configuration not stated) (tested in a mixture with another compound), the survivor count (dose: 30.0 mg/kg/injection, schedule: Q01DX001 (ip), vehicle: carboxymethylcellulose (CMC)) is reported as 0 of 6, the survivor count (dose: 60.0 mg/kg/injection, schedule: Q01DX001 (ip), vehicle: carboxymethylcellulose (CMC)) is reported as 0 of 6 and the survivor count (dose: 75.0 mg/kg/injection, schedule: Q01DX001 (ip), vehicle: carboxymethylcellulose (CMC)) is reported as 0 of 6. For the same compound, the survivor count (dose: 150.0 mg/kg/injection, schedule: Q01DX001 (ip), vehicle: carboxymethylcellulose (CMC)) was 0 of 6 and the survivor count (dose: 300.0 mg/kg/injection, schedule: Q01DX001 (ip), vehicle: carboxymethylcellulose (CMC)) was 0 of 6.
In the case of C1CCCC(NNC2CCCCCCC2)CCC1, the survivor count [5] is reported as 0 of 6 and the survivor count [3] is reported as 0 of 6.
With O=C(CI)Nc1ccc(NC(=O)CI)cc1 the survivor count [1] was 0 of 6.
CCCCN(C(=O)OCC)P(=O)(OCC)OCC was tested, and the survivor count [9] was 0 of 6.
Nc1ncc(C(=O)O)c(N)n1 was tested, and the survivor count (dose: 200.0 mg/kg/injection, schedule: Q01DX001 (ip), vehicle: other) was 3 of 6 and the survivor count (dose: 400.0 mg/kg/injection, schedule: Q01DX001 (ip), vehicle: other) was 0 of 6.
For O=C(Cc1c[nH]c2ccccc12)N/N=C\c1c[nH]c2ccccc12, the survivor count [4] was 6 of 6.
For CC(Cc1ccccc1)n1c(-c2ccccc2)c[n+]2ccccc12 (configuration not stated), the survivor count (dose: 9.38 mg/kg/injection, schedule: Q01DX001 (ip), vehicle: other) was 1 of 6, the survivor count (dose: 18.75 mg/kg/injection, schedule: Q01DX001 (ip), vehicle: other) was 0 of 6 and the survivor count (dose: 37.5 mg/kg/injection, schedule: Q01DX001 (ip), vehicle: other) was 0 of 6. For the same compound, the survivor count (dose: 75.0 mg/kg/injection, schedule: Q01DX001 (ip), vehicle: other) was 0 of 6, the survivor count (dose: 150.0 mg/kg/injection, schedule: Q01DX001 (ip), vehicle: other) was 0 of 6 and the survivor count (dose: 300.0 mg/kg/injection, schedule: Q01DX001 (ip), vehicle: other) was 0 of 6.
With CC(CO)(CI)[n+]1ccccc1 (configuration not stated) the survivor count [7] was 0 of 6 and the survivor count [8] was 0 of 6.
O=C1[CH2][Hg][O]1 was tested, and the survivor count (dose: 12.5 mg/kg/injection, schedule: Q04DX002 (ip), vehicle: Klucel (hydroxypropylcellulose) (HPC)) was 0 of 3, the survivor count (dose: 25.0 mg/kg/injection, schedule: Q04DX002 (ip), vehicle: Klucel (hydroxypropylcellulose) (HPC)) was 0 of 3 and the survivor count (dose: 50.0 mg/kg/injection, schedule: Q04DX002 (ip), vehicle: Klucel (hydroxypropylcellulose) (HPC)) was 1 of 3. For the same compound, the survivor count (dose: 100.0 mg/kg/injection, schedule: Q04DX002 (ip), vehicle: Klucel (hydroxypropylcellulose) (HPC)) was 0 of 3, the survivor count (dose: 200.0 mg/kg/injection, schedule: Q04DX002 (ip), vehicle: Klucel (hydroxypropylcellulose) (HPC)) was 0 of 3 and the survivor count (dose: 400.0 mg/kg/injection, schedule: Q04DX002 (ip), vehicle: Klucel (hydroxypropylcellulose) (HPC)) was 0 of 3.
For NC(=O)NN=C1CSSC1, the survivor count (dose: 25.0 mg/kg/injection, schedule: Q01DX009 (ip), vehicle: saline with Tween-80) was 0 of 6, the survivor count (dose: 25.0 mg/kg/injection, schedule: Q04DX003 (ip), vehicle: saline with Tween-80) was 2 of 6 and the survivor count (dose: 50.0 mg/kg/injection, schedule: Q01DX009 (ip), vehicle: saline with Tween-80) was 0 of 6. For the same compound, the survivor count (dose: 50.0 mg/kg/injection, schedule: Q04DX003 (ip), vehicle: saline with Tween-80) was 0 of 6.
For CCCCNCCC(SS)c1ccc(Cl)cc1 (configuration not stated), the survivor count [6] was 0 of 6 and the survivor count [8] was 0 of 6.
For CC(C)(CCCl)N(Cc1ccccc1)Cc1ccccc1, the survivor count [9] was 6 of 6.
With CCOC(CCC#N)c1ccccc1 (configuration not stated) the survivor count (dose: 445.0 mg/kg/injection, schedule: Q01DX009 (ip), vehicle: saline with Tween-80) was 3 of 6.
Nc1nc(-c2ccccc2N=NN2CCCCC2)nc2ccccc12 was tested, and the survivor count [1] was 4 of 6.
CN(C)c1ccc(N=Cc2cc[n+](C)cc2)cc1 was tested, and the survivor count (dose: 100.0 mg/kg/injection, schedule: Q01DX009 (ip), vehicle: saline) was 3 of 6, the survivor count [2] was 0 of 6 and the survivor count (dose: 400.0 mg/kg/injection, schedule: Q04DX003 (ip), vehicle: saline) was 0 of 6.
For C=CCNc1ncnc2c1cnn2C, the survivor count (dose: 200.0 mg/kg/injection, schedule: Q01DX009 (ip), vehicle: saline) was 4 of 6.
CC1NNC(=O)C1(Br)Br (configuration not stated) was tested, and the survivor count (dose: 50.0 mg/kg/injection, schedule: Q01DX009 (ip), vehicle: gum acacia) was 0 of 3, the survivor count (dose: 100.0 mg/kg/injection, schedule: Q01DX009 (ip), vehicle: gum acacia) was 0 of 3 and the survivor count (dose: 200.0 mg/kg/injection, schedule: Q01DX009 (ip), vehicle: gum acacia) was 0 of 3.
In the case of C1CCC(C2CCC(N3CCCCC3)CC2)CC1 (configuration not stated), the survivor count [4] is reported as 0 of 4.
In the case of CCC1=C[C@H]2CN(CCc3c([nH]c4ccccc34)[C@@](C(=O)OC)(c3cc4c(cc3OC)N(C)[C@H]3[C@@](O)(C(=O)NC)[C@H](OC(C)=O)[C@]5(CC)C=CCN6CC[C@]43[C@@H]65)C2)C1, the T/C (dose: 0.12 mg/kg/injection, schedule: Q01DX009 (ip), vehicle: water) is reported as 139 % of control, the T/C (dose: 0.5 mg/kg/injection, schedule: Q01DX009 (ip), vehicle: saline) is reported as 129 % of control and the T/C (dose: 0.5 mg/kg/injection, schedule: Q01DX009 (ip), vehicle: water) is reported as 142 % of control. The survivor count (dose: 2.0 mg/kg/injection, schedule: Q01DX009 (ip), vehicle: water) was 5 of 6.
